What all share (test): two-hybrid; S. cerevisiae AH109 co-transformants (pGBKT7 and pGADT7), grown at 30°C, replated on non-selection (+HIS) and selection (−HIS) plates
The target in assay [1] is Arl8b (yeast two-hybrid fusion, Arl8b-pGBKT7) (UniProt Q9NVJ2).
The target of assay [2] is T1, hVps18 (yeast two-hybrid fusion) (human) (UniProt Q9P253).
T1 sequence: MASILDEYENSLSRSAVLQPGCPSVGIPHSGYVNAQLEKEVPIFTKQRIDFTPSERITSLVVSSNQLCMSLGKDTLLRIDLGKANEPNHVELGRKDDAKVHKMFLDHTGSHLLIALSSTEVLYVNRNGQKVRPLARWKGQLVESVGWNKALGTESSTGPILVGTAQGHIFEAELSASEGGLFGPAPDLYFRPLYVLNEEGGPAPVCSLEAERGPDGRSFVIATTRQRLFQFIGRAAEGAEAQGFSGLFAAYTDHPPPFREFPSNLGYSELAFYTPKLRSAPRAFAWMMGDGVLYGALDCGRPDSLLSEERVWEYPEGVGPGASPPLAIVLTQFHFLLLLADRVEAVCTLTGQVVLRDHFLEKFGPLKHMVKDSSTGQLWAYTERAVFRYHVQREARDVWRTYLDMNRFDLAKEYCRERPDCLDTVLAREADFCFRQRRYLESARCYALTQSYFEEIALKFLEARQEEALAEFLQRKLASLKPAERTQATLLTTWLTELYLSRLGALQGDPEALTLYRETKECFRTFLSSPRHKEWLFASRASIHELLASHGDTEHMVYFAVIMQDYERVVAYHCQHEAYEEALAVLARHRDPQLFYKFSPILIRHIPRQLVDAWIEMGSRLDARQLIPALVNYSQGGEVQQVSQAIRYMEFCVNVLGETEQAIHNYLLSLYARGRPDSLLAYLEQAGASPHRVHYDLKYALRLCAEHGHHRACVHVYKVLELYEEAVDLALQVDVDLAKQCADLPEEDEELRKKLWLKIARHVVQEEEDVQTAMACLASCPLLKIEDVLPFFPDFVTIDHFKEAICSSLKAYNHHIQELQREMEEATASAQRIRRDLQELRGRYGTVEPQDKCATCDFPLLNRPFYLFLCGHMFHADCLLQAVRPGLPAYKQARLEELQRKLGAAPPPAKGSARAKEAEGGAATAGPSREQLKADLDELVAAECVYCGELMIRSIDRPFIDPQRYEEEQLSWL

Sequences of proteins named here, by UniProt entry; tags and fusion partners are left off.
UniProt Q9NVJ2: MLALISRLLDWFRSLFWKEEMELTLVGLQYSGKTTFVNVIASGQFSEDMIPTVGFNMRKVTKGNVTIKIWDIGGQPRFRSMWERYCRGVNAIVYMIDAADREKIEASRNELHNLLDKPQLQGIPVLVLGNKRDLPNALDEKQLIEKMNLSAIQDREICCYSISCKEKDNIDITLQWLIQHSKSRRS
UniProt P51149: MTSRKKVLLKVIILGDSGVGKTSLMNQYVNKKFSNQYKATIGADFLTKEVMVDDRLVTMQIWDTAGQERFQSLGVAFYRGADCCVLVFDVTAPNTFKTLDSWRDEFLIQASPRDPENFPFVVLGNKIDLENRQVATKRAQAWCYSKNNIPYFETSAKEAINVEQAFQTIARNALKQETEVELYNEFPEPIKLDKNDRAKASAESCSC

Assay [3] addresses T2, hVps39 (yeast two-hybrid fusion) (human) (UniProt Q96JC1).
T2 sequence: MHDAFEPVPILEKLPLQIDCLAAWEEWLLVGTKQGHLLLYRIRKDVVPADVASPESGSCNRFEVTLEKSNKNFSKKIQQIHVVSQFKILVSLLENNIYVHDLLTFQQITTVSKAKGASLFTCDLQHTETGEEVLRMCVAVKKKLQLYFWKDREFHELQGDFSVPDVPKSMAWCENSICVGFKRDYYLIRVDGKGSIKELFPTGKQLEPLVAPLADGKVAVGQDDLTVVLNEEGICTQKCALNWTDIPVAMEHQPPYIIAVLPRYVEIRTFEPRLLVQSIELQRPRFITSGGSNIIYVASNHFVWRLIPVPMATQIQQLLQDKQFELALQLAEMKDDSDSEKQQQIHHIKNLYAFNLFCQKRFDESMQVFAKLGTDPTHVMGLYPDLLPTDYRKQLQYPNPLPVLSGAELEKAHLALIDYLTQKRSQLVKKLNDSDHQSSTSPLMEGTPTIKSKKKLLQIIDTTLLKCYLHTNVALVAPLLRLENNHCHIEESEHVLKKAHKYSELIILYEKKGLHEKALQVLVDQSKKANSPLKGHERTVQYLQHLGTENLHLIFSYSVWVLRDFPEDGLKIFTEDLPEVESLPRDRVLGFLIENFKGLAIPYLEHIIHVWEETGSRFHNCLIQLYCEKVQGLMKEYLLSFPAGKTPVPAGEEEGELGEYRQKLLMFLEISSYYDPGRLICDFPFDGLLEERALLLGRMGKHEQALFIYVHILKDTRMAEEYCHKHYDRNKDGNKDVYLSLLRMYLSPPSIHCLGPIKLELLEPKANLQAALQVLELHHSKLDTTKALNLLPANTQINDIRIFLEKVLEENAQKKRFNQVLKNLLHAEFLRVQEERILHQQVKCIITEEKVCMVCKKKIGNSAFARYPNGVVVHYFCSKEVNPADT

In assay [4] the target is T3, SKIP (yeast two-hybrid fusion) (UniProt Q8IWE5).
T3 sequence: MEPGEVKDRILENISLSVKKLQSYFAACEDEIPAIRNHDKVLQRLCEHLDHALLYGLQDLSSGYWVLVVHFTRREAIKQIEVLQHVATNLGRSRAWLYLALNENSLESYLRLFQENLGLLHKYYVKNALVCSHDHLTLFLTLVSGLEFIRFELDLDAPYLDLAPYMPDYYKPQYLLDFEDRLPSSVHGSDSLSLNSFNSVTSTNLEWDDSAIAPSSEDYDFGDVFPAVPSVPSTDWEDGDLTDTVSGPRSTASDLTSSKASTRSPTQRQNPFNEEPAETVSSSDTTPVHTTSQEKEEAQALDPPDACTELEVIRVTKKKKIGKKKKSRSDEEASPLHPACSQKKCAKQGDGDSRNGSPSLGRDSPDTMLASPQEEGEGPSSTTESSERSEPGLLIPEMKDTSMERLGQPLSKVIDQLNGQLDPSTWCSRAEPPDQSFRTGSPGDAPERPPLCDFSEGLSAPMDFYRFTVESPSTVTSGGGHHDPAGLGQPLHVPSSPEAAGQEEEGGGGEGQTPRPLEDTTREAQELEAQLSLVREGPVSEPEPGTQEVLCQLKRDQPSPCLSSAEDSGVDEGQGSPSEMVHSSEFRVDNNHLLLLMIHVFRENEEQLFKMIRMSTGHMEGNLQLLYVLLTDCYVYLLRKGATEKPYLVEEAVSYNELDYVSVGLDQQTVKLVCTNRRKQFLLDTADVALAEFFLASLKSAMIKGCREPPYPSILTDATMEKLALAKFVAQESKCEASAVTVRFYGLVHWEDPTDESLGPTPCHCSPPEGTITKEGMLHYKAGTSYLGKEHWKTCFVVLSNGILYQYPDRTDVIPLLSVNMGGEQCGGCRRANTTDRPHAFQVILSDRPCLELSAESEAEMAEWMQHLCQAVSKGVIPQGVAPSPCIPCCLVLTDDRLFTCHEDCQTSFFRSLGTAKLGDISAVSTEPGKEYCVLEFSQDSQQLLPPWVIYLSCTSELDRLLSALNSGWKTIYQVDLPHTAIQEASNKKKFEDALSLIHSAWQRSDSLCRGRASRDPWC

The target of assay [5] is Rab7 (yeast two-hybrid fusion) (UniProt P51149).
For assay [6], the target named is T4, hVps16 (yeast two-hybrid fusion) (human) (UniProt Q9H269).
T4 sequence: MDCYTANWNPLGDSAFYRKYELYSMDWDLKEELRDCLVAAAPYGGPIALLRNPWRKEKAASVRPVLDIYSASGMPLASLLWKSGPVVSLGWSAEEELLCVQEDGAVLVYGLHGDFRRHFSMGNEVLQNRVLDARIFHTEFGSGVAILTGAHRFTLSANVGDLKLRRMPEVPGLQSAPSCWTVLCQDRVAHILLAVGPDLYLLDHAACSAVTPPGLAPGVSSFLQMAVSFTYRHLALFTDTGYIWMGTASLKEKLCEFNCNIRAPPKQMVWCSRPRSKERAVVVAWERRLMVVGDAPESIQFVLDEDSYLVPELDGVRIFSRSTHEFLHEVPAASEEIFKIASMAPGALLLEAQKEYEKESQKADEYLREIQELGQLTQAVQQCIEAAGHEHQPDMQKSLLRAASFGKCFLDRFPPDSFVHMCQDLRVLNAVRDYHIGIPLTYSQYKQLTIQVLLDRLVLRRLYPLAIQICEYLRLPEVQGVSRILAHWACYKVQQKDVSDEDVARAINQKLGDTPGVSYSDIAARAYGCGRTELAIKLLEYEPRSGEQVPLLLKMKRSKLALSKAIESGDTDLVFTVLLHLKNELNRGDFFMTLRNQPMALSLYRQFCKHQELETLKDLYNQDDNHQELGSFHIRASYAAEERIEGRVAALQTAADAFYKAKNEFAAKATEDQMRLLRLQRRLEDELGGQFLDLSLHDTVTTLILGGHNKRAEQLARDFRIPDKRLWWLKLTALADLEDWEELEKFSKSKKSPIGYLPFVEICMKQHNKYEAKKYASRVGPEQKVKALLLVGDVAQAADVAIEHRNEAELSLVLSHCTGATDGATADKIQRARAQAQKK

Results are given in words; binding and its absence hold for the method and conditions named. Some entries that bind do so weakly or less than the wild type. Tags and fused reporters may be left off the sequences shown.

B1: hVps11 (yeast two-hybrid fusion) (protein, UniProt Q9H270 1-941)
chain: MAAYLQWRRFVFFDKELVKEPLSNDGAAPGATPASGSAASKFLCLPPGITVCDSGRGSLVFGDMEGQIWFLPRSLQLTGFQAYKLRVTHLYQLKQHNILASVGEDEEGINPLVKIWNLEKRDGGNPLCTRIFPAIPGTEPTVVSCLTVHENLNFMAIGFTDGSVTLNKGDITRDRHSKTQILHKGNYPVTGLAFRQAGKTTHLFVVTTENVQSYIVSGKDYPRVELDTHGCGLRCSALSDPSQDLQFIVAGDECVYLYQPDERGPCFAFEGHKLIAHWFRGYLIIVSRDRKVSPKSEFTSRDSQSSDKQILNIYDLCNKFIAYSTVFEDVVDVLAEWGSLYVLTRDGRVHALQEKDTQTKLEMLFKKNLFEMAINLAKSQHLDSDGLAQIFMQYGDHLYSKGNHDGAVQQYIRTIGKLEPSYVIRKFLDAQRIHNLTAYLQTLHRQSLANADHTTLLLNCYTKLKDSSKLEEFIKKKSESEVHFDVETAIKVLRQAGYYSHALYLAENHAHHEWYLKIQLEDIKNYQEALRYIGKLPFEQAESNMKRYGKILMHHIPEQTTQLLKGLCTDYRPSLEGRSDREAPGCRANSEEFIPIFANNPRELKAFLEHMSEVQPDSPQGIYDTLLELRLQNWAHEKDPQVKEKLHAEAISLLKSGRFCDVFDKALVLCQMHDFQDGVLYLYEQGKLFQQIMHYHMQHEQYRQVISVCERHGEQDPSLWEQALSYFARKEEDCKEYVAAVLKHIENKNLMPPLLVVQTLAHNSTATLSVIRDYLVQKLQKQSQQIAQDELRVRRYREETTRIRQEIQELKASPKIFQKTKCSICNSALELPSVHFLCGHSFHQHCFESYSESDADCPTCLPENRKVMDMIRAQEQKRDLHDQFQHQLKCSNDSFSVIADYFGRGVFNKLTLLTDPPTARLTSSLEAGLQRDLLMHSRRGT
As to B1, the binding entry in assay [1] is “no binding”; in assay [2], “binds”; in assay [3] it was “binds”; in assay [4], “no binding”; in assay [5], “no binding”.

B2: hVps33a (yeast two-hybrid fusion) (protein, UniProt Q96AX1 1-596)
chain: MAAHLSYGRVNLNVLREAVRRELREFLDKCAGSKAIVWDEYLTGPFGLIAQYSLLKEHEVEKMFTLKGNRLPAADVKNIIFFVRPRLELMDIIAENVLSEDRRGPTRDFHILFVPRRSLLCEQRLKDLGVLGSFIHREEYSLDLIPFDGDLLSMESEGAFKECYLEGDQTSLYHAAKGLMTLQALYGTIPQIFGKGECARQVANMMIRMKREFTGSQNSIFPVFDNLLLLDRNVDLLTPLATQLTYEGLIDEIYGIQNSYVKLPPEKFAPKKQGDGGKDLPTEAKKLQLNSAEELYAEIRDKNFNAVGSVLSKKAKIISAAFEERHNAKTVGEIKQFVSQLPHMQAARGSLANHTSIAELIKDVTTSEDFFDKLTVEQEFMSGIDTDKVNNYIEDCIAQKHSLIKVLRLVCLQSVCNSGLKQKVLDYYKREILQTYGYEHILTLHNLEKAGLLKPQTGGRNNYPTIRKTLRLWMDDVNEQNPTDISYVYSGYAPLSVRLAQLLSRPGWRSIEEVLRILPGPHFEERQPLPTGLQKKRQPGENRVTLIFFLGGVTFAEIAALRFLSQLEDGGTEYVIATTKLMNGTSWIEALMEKPF
With B2, the binding entry in assay [6] is reported as “binds”; in assay [1], “no binding”; in assay [4], “no binding”; in assay [5] it was “no binding”.

The values are drawn from PMC4432227.
